# Read-outs that look alike come from different tables or passages of the source. For at least one compound, name, drawing or mass did not settle the structure.
# What was measured:
# Parkinson's disease = test: Clinical case: person with Parkinson's disease; assay type: in vivo, human
# Protocol: This therapeutic solution was tested on a person with Parkinson’s disease. A history of events over 3 years (current follow-up) is presented below:
# Symptoms: At the very beginning of 2018, the first manifestations of Parkinson’s appeared: tremors in the left hand, slowing of walking pace, chaotic descent of stairs, tilting of the torso forward accompanied by back pain in the form of muscle contractures, as well as the beginnings of various obvious non-motor disorders (withdrawal, indifference, difficult decision-making, loss of joy in life, depression, etc.), constipation, hyposmia. Initially, ATT was tested as monotherapy.
# Treatment: The problem then arose of deciding which dose to use. The patient was already taking ATT to treat a problem of benign prostatic hypertrophy (cf. patent WO2019/O73173) and used it with the greatest satisfaction at a dose of 3 cp to 25 mg, given in the morning and evening, but the dose turned out to be insufficient for treating Parkinson’s disease. A blood-brain barrier crossing problem was suspected and the decision was taken to increase this dose by 4 times by dividing it into 4 daily doses, i.e., 4 x 6 tablets/day (equivalent to 600 mg/day), so as to reduce concentration fluctuations as much as possible (the plasma half-life of ATT in humans is approximately 3 hrs). […]
# [1] = tested on: dopaminergic neurons in midbrain cultures; test: Survival of dopaminergic (TH+) neurons in midbrain cultures under low-noise, spontaneous oxidative stress; assay type: cell-based, mouse
# Protocol: Midbrain cultures and immunodetection of tyrosine hydroxylase (TH): Mouse midbrain cultures were produced based on a protocol initially described by Troadec and colleagues (2001) and subsequently taken up by Rousseau and colleagues (2013). The cultures were generated from Swiss mouse embryos (Janvier LABS, Le Genest-St Isles) taken from the pregnant mother on day 13.5 of gestation. The cells dissociated from the midbrain were cultured in 48-well plates containing 500 µl of DMEM/HamF12 medium, supplemented with 10% fetal bovine serum (Biowest LLC, Les Ulis, France). Approximately 80-100 10^3 cells were added initially to each culture well. After one hour, the initial medium was replaced with the DMEM/HamF12 medium supplemented with 20 µg/mL of insulin. The culture medium (350 µl) and the treatments were renewed on days 1 and 3 in vitro. The cultures were maintained for a total of 7 days before binding and analysis. The presence of trace Fe (II) sulfate (1.5 µM) in the DMEM/HamF12 medium was sufficient to trigger low-noise, spontaneous oxidative stress causing the progressive loss of dopaminergic neurons in the midbrain cultures (Rousseau et al, 2013). The reference cultures were treated with 150 µg/mL of apotransferrin (APO; T-1428, Sigma Aldrich). […] TH^+ neurons were counted according to a protocol described previously (Rousseau et al, 2013). The counts are expressed as % of the values obtained in the control cultures treated with apotransferrin.
# Statistical analysis: The experimental data correspond to mean ± SEM values. The number of individual values (n) for each experimental point results from at least two independent experiments. The data were analyzed with the GraphPad Prism 8.3.1 software or Sigmaplot 12.5 software using One-Way ANOVA, followed by a post-hoc Student Newman Keuls test.
# [2] = tested on: microglia in culture activated by PAM3CSK4 (TLR2 agonist); test: TNF-a release (ELISA) in microglia in culture activated by PAM3CSK4; assay type: cell-based, mouse; settings: PAM3CSK4 1 µg/mL, 24 hrs; FIG. 4
# Excerpt: (§1) Purification of microglia: The cultures were produced from a cell suspension obtained by mechanical dissociation of the brains of newborn mice, C57BL/6J (Janvier LABS), according to a protocol described by Sepulveda-Diaz and colleagues (Glia, 2016) and modified subsequently by dos-Santos-Pereira and colleagues (Glia, 2020). The protocol used follows the directives of the Council of the European Union (2010/63/EU). It was approved by the Ethics Committee for Animal Experimentation, Charles Darwin no. 5. […]
# (§2) Assessment of TNF-a levels: The culture medium of the microglia, recovered 24 hrs after the stimulation by the inflammogens was initiated, was then frozen at -20° C. until the analysis. TNF-a was detected with an ELISA kit from ThermoFisher (BMS607-3TWO), following the supplier’s instructions (dos-Santos-Pereira et al, Glia, 2020). The absorbance of each sample was measured at 450 nm with a SpectraMax i3X.
# (§3) Statistical analysis: The experimental data were analyzed with the GraphPad Prism 8.3.1 software by applying a One-Way ANOVA test, followed by a post-hoc Student Newman Keuls test.
# [3] = tested on: microglia in culture activated by LPS (TLR4 agonist); test: TNF-a release (ELISA) in microglia in culture activated by LPS; assay type: cell-based, mouse; settings: LPS 10 ng/mL, 24 hrs; FIG. 3
# Excerpt: as §1, §2, §3
# a-synuclein [4] = target: T1, a-synuclein (Homo sapiens, UniProt P37840); test: Amyloid aggregation of a-synuclein by orbital shaking, Thioflavin-T test; assay type: biochemical
# T1 construct: made in house; host or cells: Escherichia coli (plasmid pT7-7)
# Protocol: Preparation of a-synuclein: Human recombinant a-synuclein was produced from a strain of Escherichia coli carrying a plasmid pT7-7 containing the coding sequence of the protein (Kaylor et al, J Mol Biol, 2005; Gonzalez-Lizarraga et al, Sci Rep, 2020). After a purification step, the purity of the protein was evaluated by polyacrylamide gel electrophoresis under denaturing conditions (SDS-PAGE). The stock solution of a-synuclein was prepared in a buffer containing 20 mM of HEPES and 150 mM of NaCl at pH 7.4. Before initiating the aggregation protocol, the protein was centrifuged at 12000 g for 30 minutes in order to eliminate the micro-aggregates. The protein concentration was measured at 280 nm with a Nanodrop 8000 spectrophotometer (Gonzalez-Lizarraga et al, Sci Rep, 2020).
# Aggregation of a-synuclein […]: The aggregation protocol was adapted from previous work (Kaylor et al, J Mol Biol, 2005; Gonzalez-Lizarraga et al, Sci Rep, 2020). Briefly, the aggregation of a-synuclein was obtained by orbital shaking (600 rpm; Thermomixer Comfort; Eppendorf), at 37° C. for 96 h, of the recombinant protein (70 µM) solubilized in 20 mM of HEPES and 150 mM of NaCl, pH 7.4. Dimethylformamide (DMF) was used to dilute ATX in this experimental protocol. The formation of aggregated structures was monitored by means of the Thioflavin-T (ThT) test (LeVine et al, Meth Enzymol, 1999).
# a-synuclein [5] = target: T1, a-synuclein; test: Transmission electron microscopy of a-synuclein aggregates; assay type: biochemical; settings: DOX 10 µM
# Protocol: Transmission electron microscopy: The a-synuclein samples, shaken in the optional presence of the treatments of interest, were characterized by transmission electron microscopy. Aliquots of 50 µl of each solution were used for this analysis. The sample preparation protocol is described in detail by Gonzalez-Lizarraga and colleagues (2020). Images were obtained with a transmission electron microscope, Philips EM 301.
# a-synuclein [6] = target: T1, a-synuclein; settings: DOX 100 µM (Gonzalez-Lizarraga et al, 2020); cited from earlier work
Compound,"Effect of the earlier ATT dose on Parkinson's disease (Parkinson's disease; ATT 3 cp of 25 mg, morning and evening)","Clinical symptoms of Parkinson's disease (Parkinson's disease; ATT monotherapy 600 mg/day (4 x 6 tablets/day), three days later)","Protective effect on dopaminergic neurons (FIG. 7 images) ([1]; 3 µM, 7-day-old midbrain cultures, vs DOX 10 µM and apotransferrin 150 µg/mL)","Protective effect on dopaminergic neurons versus apotransferrin ([1]; 3 µM, 7 days, FIG. 8)","Release of TNF-a (inflammation marker), result in words [2]","Release of TNF-a (inflammation marker), result in words [3]","Anti-aggregation effect, result in words (a-synuclein [4]; DOX 10 µM)","Inhibition of a-synuclein aggregation (ThT fluorescence), result in words (a-synuclein [4]; DOX 100 µM, 600 rpm, 37° C., 96 h, FIG. 5A)",Amyloid aggregation of a-synuclein seen by TEM (a-synuclein [5]),"Protective effect on dopaminergic neurons ([1]; DOX 10 µM, 7 days, FIG. 8)",Amyloid aggregation of a-synuclein seen by TEM (a-synuclein [6])
"COc1ccc(-c2cc(=S)ss2)cc1 [ATT, anethole trithione]",insufficient,"all the clinical symptoms disappeared, except for the tremors, hyposmia and constipation",appears to be superior to that of DOX and apotransferrin,protective effect comparable to the reference treatment,,,,,,,
"C[C@H]1c2cccc(O)c2C(=O)C2=C(O)[C@]3(O)C(=O)C(C(N)=O)=C(O)[C@@H](N(C)C)[C@@H]3[C@@H](O)[C@@H]21 [DOX, doxycycline]",,,,,induced a decrease in inflammation,induced a decrease in inflammation,devoid of its own anti-aggregation effect,capable of inhibiting this aggregation,no effect,maximum effect,An effect comparable to that produced by 10 µM of ATX
